# Experimental data reported in article PMC5997682.
# By UniProt entry, the sequences of proteins in these tests, tags left out.
# UniProt Q05397: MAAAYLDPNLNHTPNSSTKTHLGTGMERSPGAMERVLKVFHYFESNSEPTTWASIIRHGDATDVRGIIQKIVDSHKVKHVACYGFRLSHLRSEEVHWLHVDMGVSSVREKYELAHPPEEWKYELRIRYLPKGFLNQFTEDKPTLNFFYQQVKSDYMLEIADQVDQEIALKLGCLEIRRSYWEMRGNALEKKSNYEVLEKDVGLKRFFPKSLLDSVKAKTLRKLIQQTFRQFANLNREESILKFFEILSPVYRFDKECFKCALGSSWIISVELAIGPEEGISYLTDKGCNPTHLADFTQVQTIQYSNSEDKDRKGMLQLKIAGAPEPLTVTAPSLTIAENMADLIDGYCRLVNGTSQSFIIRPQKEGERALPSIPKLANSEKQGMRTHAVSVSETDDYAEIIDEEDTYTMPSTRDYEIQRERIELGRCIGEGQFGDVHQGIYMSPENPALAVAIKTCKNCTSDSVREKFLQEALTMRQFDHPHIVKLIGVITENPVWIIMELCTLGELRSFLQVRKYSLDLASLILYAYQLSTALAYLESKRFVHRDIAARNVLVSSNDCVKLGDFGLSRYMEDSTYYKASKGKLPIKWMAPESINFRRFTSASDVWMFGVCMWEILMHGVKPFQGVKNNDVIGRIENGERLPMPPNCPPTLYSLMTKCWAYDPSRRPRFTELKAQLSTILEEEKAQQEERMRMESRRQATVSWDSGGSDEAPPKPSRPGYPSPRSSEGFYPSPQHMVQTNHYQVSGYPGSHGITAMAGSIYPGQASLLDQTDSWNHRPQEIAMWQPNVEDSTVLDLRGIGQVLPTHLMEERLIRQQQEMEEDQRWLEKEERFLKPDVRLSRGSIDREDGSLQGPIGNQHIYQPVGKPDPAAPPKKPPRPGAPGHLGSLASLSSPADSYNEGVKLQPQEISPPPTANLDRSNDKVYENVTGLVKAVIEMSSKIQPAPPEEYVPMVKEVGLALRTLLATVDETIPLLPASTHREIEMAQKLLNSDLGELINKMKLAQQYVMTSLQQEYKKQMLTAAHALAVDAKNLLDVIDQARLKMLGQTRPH
# These are yes or no findings as the source states them, for the method shown. In cells and extracts the contact can be indirect. Some binding calls cover weakened binding; strength is not graded here.
# Molecular target: T1, endogenous Caspr1 in HBMECs (human (endogenous in HBMECs)) (UniProt P78357)
# T1 sequence: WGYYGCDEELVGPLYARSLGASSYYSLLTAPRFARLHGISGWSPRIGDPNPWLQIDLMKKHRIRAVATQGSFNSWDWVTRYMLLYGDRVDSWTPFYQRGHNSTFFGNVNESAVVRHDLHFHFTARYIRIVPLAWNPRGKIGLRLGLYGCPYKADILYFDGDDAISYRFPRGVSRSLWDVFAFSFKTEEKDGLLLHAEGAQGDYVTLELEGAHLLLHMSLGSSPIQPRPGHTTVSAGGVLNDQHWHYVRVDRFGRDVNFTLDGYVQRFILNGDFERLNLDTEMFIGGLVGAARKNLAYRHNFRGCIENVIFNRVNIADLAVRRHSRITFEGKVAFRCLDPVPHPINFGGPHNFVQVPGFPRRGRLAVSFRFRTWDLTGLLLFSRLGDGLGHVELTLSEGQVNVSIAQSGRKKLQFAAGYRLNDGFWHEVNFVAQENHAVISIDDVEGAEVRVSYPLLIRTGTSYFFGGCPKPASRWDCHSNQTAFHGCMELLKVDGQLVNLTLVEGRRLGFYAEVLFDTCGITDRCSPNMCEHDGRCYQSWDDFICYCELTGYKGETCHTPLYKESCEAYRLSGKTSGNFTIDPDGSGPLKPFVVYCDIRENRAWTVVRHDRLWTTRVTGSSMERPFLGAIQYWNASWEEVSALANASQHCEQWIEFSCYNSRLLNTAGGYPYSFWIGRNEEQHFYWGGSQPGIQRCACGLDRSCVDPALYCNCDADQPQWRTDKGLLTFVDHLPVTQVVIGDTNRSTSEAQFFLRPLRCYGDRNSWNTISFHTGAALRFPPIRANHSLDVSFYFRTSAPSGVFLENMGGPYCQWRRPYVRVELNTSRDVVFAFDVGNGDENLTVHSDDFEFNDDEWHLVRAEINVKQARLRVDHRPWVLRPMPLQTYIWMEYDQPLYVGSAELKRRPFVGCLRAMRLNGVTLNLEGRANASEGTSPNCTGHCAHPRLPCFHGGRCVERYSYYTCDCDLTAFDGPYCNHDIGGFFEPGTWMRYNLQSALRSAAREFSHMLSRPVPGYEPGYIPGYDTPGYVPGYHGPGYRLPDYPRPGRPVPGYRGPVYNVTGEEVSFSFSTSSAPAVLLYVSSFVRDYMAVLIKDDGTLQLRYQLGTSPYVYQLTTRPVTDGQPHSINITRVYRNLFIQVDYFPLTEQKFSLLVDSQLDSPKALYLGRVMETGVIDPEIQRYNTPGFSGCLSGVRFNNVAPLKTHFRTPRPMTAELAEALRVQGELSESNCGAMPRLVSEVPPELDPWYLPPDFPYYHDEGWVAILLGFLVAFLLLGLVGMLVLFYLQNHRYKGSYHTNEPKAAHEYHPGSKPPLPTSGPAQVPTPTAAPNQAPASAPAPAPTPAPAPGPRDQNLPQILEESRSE
# Assay: co-IP
substance,measurement,value
"focal adhesion kinase (FAK), endogenous in HBMECs (from UniProt Q05397 1-1052) (enzyme)",binding,binds
